Some of the results follow. Most entries show no effect beyond the scatter of the controls.
Tests used:
[1] = tested on: ppGalNAc-T3 sensor; assay: T3 sensor activation Q score (MG/GFP ratio z-score vs DMSO controls) (SD units); higher = more sensor activation (inhibition of ppGalNAc-T3 glycosylation); conditions: HEK293 sensor cells; 10 µM; 6 h
Method: (§1)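 Cells were treated with compound at 10 uM for 6 h, then MG/GFP ratio was read by flow cytometry (10,000 cells per well, duplicate wells). Q = (R - R_neg)/SD_neg relative to DMSO vehicle controls; the signal rises when the glycosyltransferase is inhibited.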

[2] = tested on: ppGalNAc-T2 sensor; assay: T2 sensor activation Q score (MG/GFP ratio z-score vs DMSO controls) (SD units); higher = more sensor activation (inhibition of ppGalNAc-T2 glycosylation); conditions: HEK293 sensor cells; 10 µM; 6 h
Method: as §1

SMILES	T3 sensor activation Q score [1]	T2 sensor activation Q score [2]
O=C(COc1ccccc1O)NO	-0.005	-1.24
COc1ccc(N2C(=O)C(O)=C(C(C)=O)C2c2ccccc2)cc1 (stereo not drawn)	0.065	0.305
NNc1nc(-c2ccccc2)cc(-c2ccc(F)cc2)n1	2.35	-0.34
O=S(=O)(c1ccc(Cl)c(Cl)c1)N1CCCCC1	0.495	-0.455
COc1ccccc1C(=O)Nc1ccc(-c2nc3cc(Cl)ccc3o2)cc1	-1.48	-1.04
CN(C)CCC(=O)c1cccs1	-0.46	-0.985
O=C(Nc1ccc(Nc2ccccc2)cc1)C1CC1c1ccccc1 (stereo not drawn)	-0.505	1.16
Cc1ccc2[nH]c3nc(NN)nnc3c2c1	-0.33	-0.675
CCN(C/C=C/c1ccccc1)CCN(C)C	0.545	0.53
CN1CCCN(Cc2cccc(Br)c2)CC1	-0.135	-0.4
NNC(=O)c1nc(-c2ccccc2)cc(-c2ccccc2)n1	2.85	0.225
CCOC(=O)N1CCN(CC(O)COc2ccc(Br)cc2)CC1 (stereo not drawn)	0.645	0.195
O=S(=O)(Nc1cccc(Cl)c1Cl)c1ccc(F)cc1	-0.24	-0.335
CCc1nc2c(c(=O)[nH]1)C1(CCCCC1)Cc1ccccc1-2	-0.535	-0.43
CN1CCN(S(=O)(=O)c2cc(Cl)c(Cl)cc2Cl)CC1	-0.435	0.385
COc1cc(C)nc(NN)n1	0.285	0.74
CCOc1ccccc1C(=O)Nc1ccc(Cl)cc1F	0.345	-0.24
Cc1cccc(OCCCN2CCCCC2)c1C	0.16	-1.35
CC(CCN1CCN(c2ccccn2)CC1)c1ccccc1 (stereo not drawn)	-0.225	0.89
Cc1ccc(NC(=O)COc2ccc(Cl)cc2Cl)cc1	-0.385	0.245
COc1ccc2c(c1)CCC(C1(O)C(=O)Nc3ccccc31)C2=O (stereo not drawn)	0.055	-0.075
CCOC(=O)Nc1ccc(C(C)CC)cc1 (stereo not drawn)	-0.28	-0.545
Cc1cccc(C(=O)c2cn[nH]c2-c2ccc(C)cc2O)c1	-0.08	-0.725
Cc1cc(-c2cc(C(=O)O)c3ccccc3n2)c(C)s1	1.26	0.395
COc1ccc(-c2noc(-c3cccc(OC)c3)n2)cc1	0.765	0.665
COc1cc(OC)cc(C(=O)NCCC2=CCCCC2)c1	-0.285	0.84
CC1(C)CC(CC(=O)NN)(c2ccccc2)CCO1 (stereo not drawn)	0.13	-0.135
COc1cc(CN2CCSCC2)cc(OC)c1OC	0.245	0.36
Cc1cc(C)c(S(=O)(=O)NCC(=O)O)c(C)c1	-0.455	1.35

Some of these compounds in order of formula weight, descending.
SMILES	T3 sensor activation Q score [1]	T2 sensor activation Q score [2]
COc1ccccc1C(=O)Nc1ccc(-c2nc3cc(Cl)ccc3o2)cc1	-1.48	-1.04
CC(CCN1CCN(c2ccccn2)CC1)c1ccccc1 (stereo not drawn)	-0.225	0.89
CN1CCCN(Cc2cccc(Br)c2)CC1	-0.135	-0.4
COc1ccc(-c2noc(-c3cccc(OC)c3)n2)cc1	0.765	0.665
NNc1nc(-c2ccccc2)cc(-c2ccc(F)cc2)n1	2.35	-0.34
CC1(C)CC(CC(=O)NN)(c2ccccc2)CCO1 (stereo not drawn)	0.13	-0.135
Cc1cc(C)c(S(=O)(=O)NCC(=O)O)c(C)c1	-0.455	1.35

From the supplement of paper PMC5407854, “Inhibitor of ppGalNAc-T3-mediated O-glycosylation blocks cancer cell invasiveness and lowers FGF23 levels” (eLife, 2017)
